# Out of some 320,000 compounds screened, about 22,000 (6.9%) were called active. Inconclusive means that the source gave no clear call. Such entries were picked first, then a sample of the others. The call rests on the fitted dose curve; in most records, active means well fitted inhibition curve with a large enough effect; inconclusive means small, poorly fitted or top-dose-only effect, or another doubt; inactive means no such curve, though single readings can be large or run the other way. Potencies beside an inconclusive call are fits to weak or partial responses and may not hold up.
# Assay: Primary qHTS for delayed death inhibitors of the malarial parasite plastid, 96 hour incubation
# Conditions: P. falciparum luciferase reporter growth; series mostly up to 28.7 µM; activity change, negative = inhibition: at the top concentration
# Procedure, shortened: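 Two parasite generations (96 h, 37 C, 5% CO2) of compound exposure in infected erythrocytes (0.05% parasitemia, 2% hematocrit). Luciferase-reporter P. falciparum; decreased luminescence indicates inhibited growth, aimed at apicoplast-acting delayed death.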
# On the % scale 0 is the no-effect control and ±100 the full control effect; potency means the concentration at half of the fitted maximal effect.
Structure (SMILES),"activity change, negative = inhibition",Potency
Cc1ccc(-n2c(SCC(=O)N3CCOCC3)nnc2-c2ccncc2)cc1,inactive: 17.2%,
CCOc1ccc(NC(=O)CN(C)C(=O)CCN2C(=O)C3CC=CCC3C2=O)cc1OCC (stereo not drawn),,"inconclusive: 18.5 µM [inhibitor, single point]"
Oc1ccc(Cl)cc1Sc1cc(Cl)ccc1O,,active: 13.5 µM
C/C(=N\NC(=O)Cn1nc(C)cc1C)c1ccc([N+](=O)[O-])cc1,inactive: 45.4%,
N#Cc1sc2nc(-c3cccs3)cc(-c3ccccc3)c2c1N,,"inconclusive: 0.0066 µM [inhibitor, full curve, poor fit]"
Cc1ccc(S(=O)(=O)Nc2ccc(S(=O)(=O)N3CCOCC3)cc2)cc1[N+](=O)[O-],,"inconclusive: 13.1 µM [inhibitor, single point]"
Cn1c(=O)oc2cc(S(=O)(=O)NCc3ccc(F)cc3)ccc21,,"inconclusive: 0.657 µM [inhibitor, partial curve, poor fit]"
O=C(N/N=C/c1ccccc1O)C1CC(=O)N(c2ccc(F)cc2)C1 (stereo not drawn),,"inconclusive: 10.4 µM [inhibitor, partial curve]"
Cc1ccc(OCC(=O)c2cc(C)n(-c3cc(C)on3)c2C)c([N+](=O)[O-])n1,,"inconclusive: 18.5 µM [inhibitor, single point]"
Cc1ccccc1OCC(O)Cn1c(=N)n(CCN2CCOCC2)c2ccccc21 (stereo not drawn),,"inconclusive: 18.5 µM [inhibitor, single point]"
CC(c1nccs1)N(C)c1nc2nonc2nc1N(C)C (stereo not drawn),,active: 13.1 µM
CCC(NC(=O)c1ccc2nc(Cc3ccc(OC)cc3)oc2c1)c1ccncc1 (stereo not drawn),,"inconclusive: 3.29 µM [inhibitor, partial curve, poor fit]"
COc1ccc(OC)c(NC(=O)COC(=O)/C=C/c2c(C)nn(C3CCS(=O)(=O)C3)c2Cl)c1 (stereo not drawn),,"inconclusive: 0.294 µM [inhibitor, full curve, poor fit]"
CCOc1cc(OCC)cc(C(=O)NCc2ccco2)c1,,"inconclusive: 4.15 µM [inhibitor, partial curve, poor fit]"
CCCCN(C(=O)c1cccc(S(=O)(=O)N2CCCCC2)c1)C1CCS(=O)(=O)C1 (stereo not drawn),,"inconclusive: 10.4 µM [inhibitor, partial curve]"
CCCCCCCC(=O)Nc1cc(C(=O)NCCC)ccc1N1CCC2(CC1)CC(c1cccc(Br)c1)=NO2,,"inconclusive: 2.94 µM [inhibitor, single point]"
Cc1onc(-c2cccc(Cl)c2Cl)c1C(=O)O/N=C(\N)c1ccc([N+](=O)[O-])o1,,active: 10.4 µM
C[N+](C)(C)CCCN(Cc1ccc2c(c1)OCO2)C(=O)NC1CCCCC1,,"inconclusive: 13.1 µM [inhibitor, single point]"

# 3 entries out of the list, ordered by formula weight, low to high.
Structure (SMILES),"activity change, negative = inhibition",Potency
CCOc1ccc(NC(=O)CN(C)C(=O)CCN2C(=O)C3CC=CCC3C2=O)cc1OCC (stereo not drawn),,"inconclusive: 18.5 µM [inhibitor, single point]"
COc1ccc(OC)c(NC(=O)COC(=O)/C=C/c2c(C)nn(C3CCS(=O)(=O)C3)c2Cl)c1 (stereo not drawn),,"inconclusive: 0.294 µM [inhibitor, full curve, poor fit]"
CCCCCCCC(=O)Nc1cc(C(=O)NCCC)ccc1N1CCC2(CC1)CC(c1cccc(Br)c1)=NO2,,"inconclusive: 2.94 µM [inhibitor, single point]"

# Reference: PubChem BioAssay AID504834 (National Center for Advancing Translational Sciences (NCATS), 2011)
